Data published in US12565659B2, “Recombinant lac polynucleotides and uses thereof to increase production of C-lignin in plants” (UNIVERSITY OF NORTH TEXAS, priority 2020, dated 2026).

Tests used:
[1] = tested on: M. truncatula comt mutant hairy root cultures (expressing ChLAC8 or GUS); test: Feeding Medicago hairy roots with 13C6-caffeyl and coniferyl alcohols, lignin analysis by thioacidolysis; format: cell-based, Medicago truncatula; conditions: 100 μM, 2 days
[2] = tested on: Arabidopsis comt mutant inflorescence stems (expressing ChLAC8 or GUS); test: Feeding Arabidopsis stems with 13C6-caffeyl alcohol, lignin analysis by thioacidolysis; format: in vivo, Arabidopsis thaliana
[3] = ChLAC8-expressing comt lines, cut stems, 100 μM, 2 days

Substance	% of C units after feeding ([1]; both ChLAC8-expressing and GUS control lines)	C-units as share of total lignin thioacidolysis yield [2, 3]	incorporation of labeled C-units (label incorporation into C-lignin) [2, 3]	incorporation of labeled C-units (label incorporation into C-lignin) ([2]; ChLAC8-expressing comt lines, cut stems, 100 μM, 2 days, listed as 13C-caffeyl alcohol)	C-units after feeding ([2]; GUS control lines (comt mutant), 100 μM, 2 days)	incorporation of 13C into C-lignin ([2]; comt mutant without ChLAC8)	proportion of G units or percentage of labeled G units after feeding ([1]; ChLAC8-expressing roots)
^13C6-caffeyl alcohol	increased	5-9%	34-42%	over 40%	no C-units were detected	no incorporation	–
^13C6-coniferyl alcohol [^13C-coniferyl alcohol]	–	–	–	–	–	–	did not increase
